Measured values as given in patent US8513220B2, “Aromatic compounds having sphingosine-1-phosphonate (S1P) receptor activity” (Allergan, Inc., priority 2010, dated 2013).
Some of these results come from one statement about several compounds together.

Tested on: lymphocytes in blood
Test: Lymphopenia assay in mice (in vivo blood lymphocyte depletion)
Conditions: female C57BL6 mice, 10 mg/Kg subcutaneous, after 5 hours
Description: Test drugs are prepared in a solution containing 3% (w/v) 2-hydroxy propyl β-cyclodextrin (HPBCD) and 1% DMSO to a final concentration of 1 mg/ml, and subcutaneously injected to female C57BL6 mice (CHARLES RIVERS) weighing 20-25 g at the dose of 10 mg/Kg. Blood samples are obtained by puncturing the submandibular skin with a Goldenrod animal lancet at 5, 24, 48, 72, and 96 hrs post drug application. Blood is collected into microvettes (SARSTEDT) containing EDTA tripotassium salt. Lymphocytes in blood samples are counted using a HEMAVET Multispecies Hematology System, HEMAVET HV950FS (Drew Scientific Inc.). (Hale, J. et al Bioorg. & Med. Chem. Lett. 14 (2004) 3351). […]
These S1P agonist (or modulator) is useful for S1P-related diseases, and exemplified by the lymphopenia in vivo response. […] Lymphocytes in blood samples were counted using a HEMAVET Multispecies Hematology System, HEMAVET HV950FS (Drew Scientific Inc.). […]

## CCCCCCc1ccc(-c2ccc(CNCCCP(=O)(O)O)nc2-c2ccccc2)cc1CCC [Compound 16, (3-{[5-(4-Hexyl-3-propyl-phenyl)-6-phenyl-pyridin-2-ylmethyl]-amino}-propyl)-phosphonic acid]
  lymphocyte count (number of lymphocytes): < 1 10^3/μL blood

## CCCCCCc1ccc(-c2ccc(CNCCCP(=O)(O)O)nc2-c2ccc(F)s2)cc1 [Compound 3, (3-{[6-(5-Fluoro-thiophen-2-yl)-5-(4-hexyl-phenyl)-pyridin-2-ylmethyl]-amino}-propyl)-phosphonic acid]
  lymphocyte count (number of lymphocytes): < 1 10^3/μL blood
